log2 fold change data for 29 targets are collected here from the supplement of paper PMC12819154, “High-throughput peptide-centric local stability assay extends protein–ligand identification to membrane proteins, tissues and bacteria” (Nature Structural & Molecular Biology, 2025).

By UniProt entry, the sequences of proteins in these tests, tags left out. Where a name states a change or a piece, a line headed by the entry shows the natural chain unless it says otherwise.
UniProt P55345: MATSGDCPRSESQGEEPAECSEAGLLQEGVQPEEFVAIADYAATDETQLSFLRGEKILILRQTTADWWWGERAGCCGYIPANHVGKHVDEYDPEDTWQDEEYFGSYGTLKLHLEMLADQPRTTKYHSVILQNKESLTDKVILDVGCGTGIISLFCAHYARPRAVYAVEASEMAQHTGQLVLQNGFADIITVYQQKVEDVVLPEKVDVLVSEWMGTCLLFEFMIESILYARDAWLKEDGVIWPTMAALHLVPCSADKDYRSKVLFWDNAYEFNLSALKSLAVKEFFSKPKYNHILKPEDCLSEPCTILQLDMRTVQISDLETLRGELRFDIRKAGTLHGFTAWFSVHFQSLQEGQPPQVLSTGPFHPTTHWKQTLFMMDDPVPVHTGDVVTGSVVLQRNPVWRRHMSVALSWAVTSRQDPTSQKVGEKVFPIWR
UniProt P78312: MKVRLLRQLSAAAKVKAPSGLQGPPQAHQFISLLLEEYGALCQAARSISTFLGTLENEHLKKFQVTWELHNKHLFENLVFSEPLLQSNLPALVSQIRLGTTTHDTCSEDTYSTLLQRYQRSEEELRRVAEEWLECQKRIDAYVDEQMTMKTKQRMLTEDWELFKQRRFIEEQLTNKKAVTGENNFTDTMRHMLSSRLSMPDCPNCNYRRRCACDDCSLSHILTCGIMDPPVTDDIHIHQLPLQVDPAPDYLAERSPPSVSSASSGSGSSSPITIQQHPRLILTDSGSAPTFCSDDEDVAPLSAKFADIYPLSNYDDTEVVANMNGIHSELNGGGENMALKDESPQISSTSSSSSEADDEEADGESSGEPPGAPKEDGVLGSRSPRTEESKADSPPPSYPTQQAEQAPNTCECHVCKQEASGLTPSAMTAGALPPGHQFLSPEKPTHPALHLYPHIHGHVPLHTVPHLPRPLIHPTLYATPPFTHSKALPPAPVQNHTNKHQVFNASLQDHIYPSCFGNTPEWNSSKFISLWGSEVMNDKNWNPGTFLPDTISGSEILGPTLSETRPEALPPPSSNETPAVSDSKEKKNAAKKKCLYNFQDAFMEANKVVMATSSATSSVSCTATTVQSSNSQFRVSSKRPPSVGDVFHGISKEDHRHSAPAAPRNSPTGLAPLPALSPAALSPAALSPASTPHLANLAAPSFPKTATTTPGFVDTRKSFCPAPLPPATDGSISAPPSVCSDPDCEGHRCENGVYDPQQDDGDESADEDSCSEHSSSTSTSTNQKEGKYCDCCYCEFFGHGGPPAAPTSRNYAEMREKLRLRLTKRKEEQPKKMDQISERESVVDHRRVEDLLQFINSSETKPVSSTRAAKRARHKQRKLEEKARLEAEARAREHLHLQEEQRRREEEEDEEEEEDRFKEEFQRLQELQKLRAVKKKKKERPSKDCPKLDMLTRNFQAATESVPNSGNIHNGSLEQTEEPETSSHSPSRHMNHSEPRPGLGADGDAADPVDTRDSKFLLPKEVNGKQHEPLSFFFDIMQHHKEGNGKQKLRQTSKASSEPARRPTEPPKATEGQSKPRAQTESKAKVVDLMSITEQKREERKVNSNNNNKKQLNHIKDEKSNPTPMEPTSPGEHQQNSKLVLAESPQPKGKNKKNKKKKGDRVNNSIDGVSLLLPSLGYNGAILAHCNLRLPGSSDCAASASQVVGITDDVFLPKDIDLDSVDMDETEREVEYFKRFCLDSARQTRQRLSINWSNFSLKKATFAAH
UniProt P61960, whole entry: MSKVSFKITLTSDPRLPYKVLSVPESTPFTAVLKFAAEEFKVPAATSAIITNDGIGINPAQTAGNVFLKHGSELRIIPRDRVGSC
UniProt P61956, whole entry: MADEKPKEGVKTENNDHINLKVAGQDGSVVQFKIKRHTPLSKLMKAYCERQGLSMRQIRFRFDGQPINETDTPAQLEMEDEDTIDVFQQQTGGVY
UniProt P62072: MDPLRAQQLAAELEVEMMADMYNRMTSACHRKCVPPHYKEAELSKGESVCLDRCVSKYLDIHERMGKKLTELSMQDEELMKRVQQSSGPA
UniProt P63098, whole entry, looked up: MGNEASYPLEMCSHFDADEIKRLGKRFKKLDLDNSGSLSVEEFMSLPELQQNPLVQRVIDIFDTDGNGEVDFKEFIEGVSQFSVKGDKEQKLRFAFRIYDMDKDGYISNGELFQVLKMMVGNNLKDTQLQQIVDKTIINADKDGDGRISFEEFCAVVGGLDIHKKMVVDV
UniProt P55036: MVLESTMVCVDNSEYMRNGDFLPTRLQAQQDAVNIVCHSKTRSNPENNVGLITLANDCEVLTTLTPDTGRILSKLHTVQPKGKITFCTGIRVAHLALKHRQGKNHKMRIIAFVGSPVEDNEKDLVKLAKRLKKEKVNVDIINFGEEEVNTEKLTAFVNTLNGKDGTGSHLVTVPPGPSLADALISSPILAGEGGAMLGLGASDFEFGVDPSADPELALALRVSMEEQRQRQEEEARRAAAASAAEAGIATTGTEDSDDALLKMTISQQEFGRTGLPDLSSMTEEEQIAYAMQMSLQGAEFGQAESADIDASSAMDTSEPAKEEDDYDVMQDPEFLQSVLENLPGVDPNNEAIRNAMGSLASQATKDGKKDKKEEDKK
UniProt P80217: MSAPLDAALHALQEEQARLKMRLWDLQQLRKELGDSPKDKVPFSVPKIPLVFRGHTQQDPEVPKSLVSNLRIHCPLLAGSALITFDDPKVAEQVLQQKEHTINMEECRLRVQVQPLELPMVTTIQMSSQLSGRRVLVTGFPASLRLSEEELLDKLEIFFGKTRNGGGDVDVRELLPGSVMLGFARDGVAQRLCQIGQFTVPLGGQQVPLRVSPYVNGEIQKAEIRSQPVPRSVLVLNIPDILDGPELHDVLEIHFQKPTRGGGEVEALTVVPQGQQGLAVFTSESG
UniProt P61018: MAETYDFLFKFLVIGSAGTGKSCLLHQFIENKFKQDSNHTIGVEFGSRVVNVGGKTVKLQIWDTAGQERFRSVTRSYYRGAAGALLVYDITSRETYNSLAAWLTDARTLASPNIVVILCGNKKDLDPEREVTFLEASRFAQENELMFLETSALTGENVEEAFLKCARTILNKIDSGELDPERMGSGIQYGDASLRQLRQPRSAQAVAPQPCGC
UniProt P62937, whole entry, looked up: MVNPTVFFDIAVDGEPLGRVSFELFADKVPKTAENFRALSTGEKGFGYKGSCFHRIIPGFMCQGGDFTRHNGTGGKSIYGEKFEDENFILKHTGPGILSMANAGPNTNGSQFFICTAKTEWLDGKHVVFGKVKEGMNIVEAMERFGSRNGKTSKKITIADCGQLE
UniProt P56945: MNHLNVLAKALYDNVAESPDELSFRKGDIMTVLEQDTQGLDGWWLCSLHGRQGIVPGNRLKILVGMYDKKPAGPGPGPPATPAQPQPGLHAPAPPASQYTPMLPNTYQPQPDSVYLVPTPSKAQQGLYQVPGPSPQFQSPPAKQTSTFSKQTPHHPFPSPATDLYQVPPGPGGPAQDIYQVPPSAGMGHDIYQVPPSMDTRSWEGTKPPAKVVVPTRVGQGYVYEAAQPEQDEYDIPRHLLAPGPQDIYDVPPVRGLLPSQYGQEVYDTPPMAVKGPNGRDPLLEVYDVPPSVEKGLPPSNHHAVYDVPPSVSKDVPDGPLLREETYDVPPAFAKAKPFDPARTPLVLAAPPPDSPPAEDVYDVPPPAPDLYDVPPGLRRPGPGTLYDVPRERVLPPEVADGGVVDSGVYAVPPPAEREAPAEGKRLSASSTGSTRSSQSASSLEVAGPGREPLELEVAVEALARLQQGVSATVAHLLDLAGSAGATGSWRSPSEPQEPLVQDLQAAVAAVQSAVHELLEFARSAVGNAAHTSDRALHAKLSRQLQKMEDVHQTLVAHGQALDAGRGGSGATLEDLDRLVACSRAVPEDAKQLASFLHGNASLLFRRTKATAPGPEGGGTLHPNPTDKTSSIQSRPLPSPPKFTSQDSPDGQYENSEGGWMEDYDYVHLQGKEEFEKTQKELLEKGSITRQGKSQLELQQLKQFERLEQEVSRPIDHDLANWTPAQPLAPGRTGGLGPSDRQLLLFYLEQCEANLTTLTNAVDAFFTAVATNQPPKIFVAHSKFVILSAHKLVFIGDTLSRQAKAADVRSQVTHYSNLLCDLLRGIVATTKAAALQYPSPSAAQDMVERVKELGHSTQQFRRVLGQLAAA
UniProt P55072, whole entry, looked up: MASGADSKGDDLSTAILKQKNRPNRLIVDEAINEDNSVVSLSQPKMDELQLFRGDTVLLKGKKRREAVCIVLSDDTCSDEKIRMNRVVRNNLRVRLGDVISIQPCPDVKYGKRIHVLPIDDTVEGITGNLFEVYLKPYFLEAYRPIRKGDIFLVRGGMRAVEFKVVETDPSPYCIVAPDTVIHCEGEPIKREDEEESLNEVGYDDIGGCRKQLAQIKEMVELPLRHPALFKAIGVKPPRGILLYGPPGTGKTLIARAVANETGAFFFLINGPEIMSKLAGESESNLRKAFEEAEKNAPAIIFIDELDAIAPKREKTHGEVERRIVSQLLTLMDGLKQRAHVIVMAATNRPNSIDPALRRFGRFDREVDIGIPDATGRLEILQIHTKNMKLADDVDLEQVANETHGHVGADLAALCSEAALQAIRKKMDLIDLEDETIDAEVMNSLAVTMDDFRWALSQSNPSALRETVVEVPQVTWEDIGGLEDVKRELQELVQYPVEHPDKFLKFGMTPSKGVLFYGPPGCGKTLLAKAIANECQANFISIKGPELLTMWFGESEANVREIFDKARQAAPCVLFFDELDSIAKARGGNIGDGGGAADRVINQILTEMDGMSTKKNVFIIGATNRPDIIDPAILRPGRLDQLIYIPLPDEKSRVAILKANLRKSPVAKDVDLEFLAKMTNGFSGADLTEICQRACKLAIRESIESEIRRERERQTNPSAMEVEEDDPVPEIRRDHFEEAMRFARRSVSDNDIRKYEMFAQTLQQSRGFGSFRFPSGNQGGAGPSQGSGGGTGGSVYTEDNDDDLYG
UniProt P60520, whole entry: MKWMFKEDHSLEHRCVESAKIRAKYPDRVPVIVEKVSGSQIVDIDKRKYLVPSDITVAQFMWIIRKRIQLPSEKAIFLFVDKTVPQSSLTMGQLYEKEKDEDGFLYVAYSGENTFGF
UniProt P62310: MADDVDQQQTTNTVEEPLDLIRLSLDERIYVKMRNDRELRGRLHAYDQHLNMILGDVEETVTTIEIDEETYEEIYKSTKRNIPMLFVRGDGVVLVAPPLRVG
UniProt P82979: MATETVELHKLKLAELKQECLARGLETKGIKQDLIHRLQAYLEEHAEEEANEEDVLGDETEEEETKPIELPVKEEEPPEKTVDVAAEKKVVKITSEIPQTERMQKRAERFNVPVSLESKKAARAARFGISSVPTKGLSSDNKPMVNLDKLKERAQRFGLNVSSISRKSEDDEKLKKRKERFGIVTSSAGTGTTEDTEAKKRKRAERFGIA
UniProt P57729: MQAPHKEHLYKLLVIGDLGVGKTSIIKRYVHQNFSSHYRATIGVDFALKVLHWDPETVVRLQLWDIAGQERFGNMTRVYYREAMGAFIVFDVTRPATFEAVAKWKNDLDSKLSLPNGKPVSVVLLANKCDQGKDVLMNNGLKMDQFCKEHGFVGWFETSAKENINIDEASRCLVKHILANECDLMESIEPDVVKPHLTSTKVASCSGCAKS
UniProt P62306, whole entry, looked up: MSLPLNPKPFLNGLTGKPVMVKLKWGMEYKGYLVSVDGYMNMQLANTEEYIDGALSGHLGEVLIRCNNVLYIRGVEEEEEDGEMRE
UniProt P62166, whole entry, looked up: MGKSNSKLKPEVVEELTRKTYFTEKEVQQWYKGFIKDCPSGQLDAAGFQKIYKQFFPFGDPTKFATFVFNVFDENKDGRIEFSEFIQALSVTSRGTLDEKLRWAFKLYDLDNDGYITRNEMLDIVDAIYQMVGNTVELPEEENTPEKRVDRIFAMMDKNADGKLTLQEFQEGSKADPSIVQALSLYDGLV
UniProt P62993, whole entry, looked up: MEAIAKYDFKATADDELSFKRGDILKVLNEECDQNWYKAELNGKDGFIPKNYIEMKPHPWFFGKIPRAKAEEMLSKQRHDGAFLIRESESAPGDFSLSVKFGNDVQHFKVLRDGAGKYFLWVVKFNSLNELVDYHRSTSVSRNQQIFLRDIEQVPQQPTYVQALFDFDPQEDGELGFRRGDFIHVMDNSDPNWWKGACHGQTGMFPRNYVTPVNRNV
UniProt P67809, whole entry: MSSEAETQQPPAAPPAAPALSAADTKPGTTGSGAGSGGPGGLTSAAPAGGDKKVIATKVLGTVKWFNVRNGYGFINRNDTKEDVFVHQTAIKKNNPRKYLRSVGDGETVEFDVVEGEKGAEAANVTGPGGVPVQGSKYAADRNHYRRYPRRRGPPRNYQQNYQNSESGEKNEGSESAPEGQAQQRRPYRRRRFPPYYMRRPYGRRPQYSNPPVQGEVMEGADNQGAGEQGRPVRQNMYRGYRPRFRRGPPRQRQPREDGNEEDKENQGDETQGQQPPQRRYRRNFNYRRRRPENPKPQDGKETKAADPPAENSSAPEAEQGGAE
UniProt P62328: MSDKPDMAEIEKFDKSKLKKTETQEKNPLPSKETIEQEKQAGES
UniProt P61086: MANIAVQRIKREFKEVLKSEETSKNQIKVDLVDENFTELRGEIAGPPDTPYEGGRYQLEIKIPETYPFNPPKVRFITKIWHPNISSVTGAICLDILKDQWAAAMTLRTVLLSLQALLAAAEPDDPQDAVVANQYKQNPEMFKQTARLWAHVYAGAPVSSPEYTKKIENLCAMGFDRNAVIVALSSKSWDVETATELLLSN

The other results are listed elsewhere or left out. Most values lie at the level of the controls, where differences are scatter.

Compound in the test: CN[C@@H]1C[C@H]2O[C@@](C)([C@@H]1OC)n1c3ccccc3c3c4c(c5c6ccccc6n2c5c31)C(=O)NC4 [staurosporine]
Nature of the test: log2 fold change of tryptic peptide abundance, ligand vs vehicle (limited proteolysis) (log2 ratio); higher = more trypsin-susceptible (destabilized). Particulars: ligand concentration: 20 uM; sample: K562 cleared lysate; digestion: 4 min, 22 C (HT-PELSA RT4min, Orbitrap Astral).
For “PRMT2 (peptide sequence: AGCCGYIPANHVGK, peptide start residue: 73) (UniProt P55345)”, the log2 fold change amounted to 0.0878. In the case of “C4ORF8 (peptide sequence: DIDLDSVDMDETEREVEYFKR, peptide start residue: 1215) (UniProt P78312)” it was 0.516.

Take “UniProt P62857 (peptide sequence: NVKGPVREGDVLTLLESER, peptide start residue: 45)”: the log2 fold change was 0.438. Turning to “UniProt P61960 (peptide sequence: ITLTSDPR, peptide start residue: 8)”, the log2 fold change was -0.151. Turning to “UniProt P61956 (peptide sequence: ADEKPKEGVK, peptide start residue: 2)”, the log2 fold change is -0.0428. Take “UniProt P62072 (peptide sequence: EAELSKGESVCLDR, peptide start residue: 40)”: the log2 fold change is -0.258. In the case of “UniProt P63098 (peptide sequence: ISFEEFCAVVGGLDIHKK, peptide start residue: 148)” it was 0.382; in that of “UniProt P62750 (peptide sequence: LDHYAIIKFPLTTESAMKK, peptide start residue: 71)”, 0.186. Under “PSMD4 (peptide sequence: VSMEEQR, peptide start residue: 222) (UniProt P55036)” stands -0.126. In the case of “IFI35 (peptide sequence: VSPYVNGEIQK, peptide start residue: 211) (UniProt P80217)” it was 0.397; in that of “UniProt P62280 (peptide sequence: RVLLGETGK, peptide start residue: 22)”, 0.272; in that of “RAB4B (peptide sequence: TLASPNIVVILCGNKK, peptide start residue: 108) (UniProt P61018)”, 0.394. Take “PPIA (peptide sequence: IIPGFMCQGGDFTRHNGTGGK, peptide start residue: 56) (UniProt P62937)”: the log2 fold change worked out at 1.15. In the case of “BCAR1 (peptide sequence: SQVTHYSNLLCDLLR, peptide start residue: 810) (UniProt P56945)” it was -0.207; in that of “NCALD (peptide sequence: LLQCDPSSAGQF, peptide start residue: 182) (UniProt P61601)”, -0.259; in that of “UniProt P55072 (peptide sequence: VINQILTEMDGMSTKK, peptide start residue: 600)”, 0.141.

With “UniProt P60520 (peptide sequence: WMFKEDHSLEHR, peptide start residue: 3)”, the log2 fold change was -0.126. Under “UniProt P62310 (peptide sequence: GDGVVLVAPPLR, peptide start residue: 89)” stands 0.0964; under “SARNP (peptide sequence: KSEDDEKLK, peptide start residue: 167) (UniProt P82979)”, 0.222. Take “UniProt P62241 (peptide sequence: TRIIDVVYNASNNELVR, peptide start residue: 76)”: the log2 fold change came out at 0.159. Take “UniProt P57729 (peptide sequence: ATIGVDFALK, peptide start residue: 56)”: the log2 fold change is -0.0141. Under “UniProt P62306 (peptide sequence: GVEEEEEDGEMRE, peptide start residue: 74)” stands -0.241; under “UniProt P60891 (peptide sequence: RVTSIADRLNVDFALIHK, peptide start residue: 177)”, -0.235; under “NCS1 (peptide sequence: LKPEVVEELTR, peptide start residue: 8) (UniProt P62166)”, 0.0638. In the case of “GRB2 (peptide sequence: NQQIFLR, peptide start residue: 143) (UniProt P62993)” it was 0.131; in that of “YBX1 (peptide sequence: VIATKVLGTVKWFNVR, peptide start residue: 54) (UniProt P67809)”, 0.528; in that of “EPPK1 (peptide sequence: LSVEEAVAAGVVGGEIQEK, peptide start residue: 2281) (UniProt P58107)”, -0.269. In the case of “TMSB4X (peptide sequence: KTETQEKNPLPSK, peptide start residue: 20) (UniProt P62328)” it was -0.0879; in that of “UniProt P61086 (peptide sequence: QNPEMFK, peptide start residue: 136)”, 0.319.
